Test results published in patent publication US20060240493A1, “Cca1 as an antifungal target” (priority 2002, published 2006).
At least one structure is not confirmed: it was looked up by name or label, or the drawing left a doubt.

How the values were obtained:
[1] = system: tetracycline-regulatable CCA1-expression system C. albicans strain; experiment: Liquid phase growth in SC-U medium plus or minus doxycycline (optical density 600 nm); format: cell-based; conditions: 20 μg/ml doxycycline, 25° C., measured at 30 min intervals over 43 h; CCA1 expression repressed
[2] = system: C. albicans strain modified to include a tetracycline-regulatable CCA1-expression system; experiment: Solid phase growth (colony formation) on SC-U agar plates plus or minus doxycycline; format: cell-based; conditions: 20 μg/ml doxycycline, SC-U plus 2% agar, 2 days at 30° C.; CCA1 expression repressed

Structure (SMILES): C[C@H]1c2cccc(O)c2C(=O)C2=C(O)[C@]3(O)C(=O)C(C(N)=O)=C(O)[C@@H](N(C)C)[C@@H]3[C@@H](O)[C@@H]21 [doxycycline]
- Growth in liquid SC-U medium [1]: no significant growth was observed
- Colony formation (growth scored) [2]: No colonies were observed
